The source of these data is patent US20260139047A1.

By UniProt entry, the sequences of proteins in these tests, tags left out. Residues count along the entry.
UniProt P60568, residues 21-153: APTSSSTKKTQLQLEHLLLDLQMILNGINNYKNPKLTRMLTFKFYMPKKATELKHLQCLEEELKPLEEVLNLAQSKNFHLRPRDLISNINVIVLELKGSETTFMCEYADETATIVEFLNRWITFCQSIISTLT

These are yes or no findings as the source states them, for the method shown. Some results given as binding are weak or reduced against the parent protein; the word gives no strength.

Sequences and labels used below:
B1: C2-53 (antibody, human IgG1, kappa, L234A L235A, V domains shown)
VH: EVQLVESGGGLVQPGRSLILSCAASGFTFDDYAMHWVRQAPGKGLEWVSGISWNSGSIGYADSVKGRFTISRDNAKNSLYLQMNSLRAEDTALYYCAKDQLRWGTYYYYGMDVWGQGTTVTVSS
VL: DIQMTQSPSTLSASVGDRVTITCRASQSVSIWVAWYQQKPGKAPKLLIYKASSLERGVPTRFSGSGSGTEFTLTISSLQPEDFATYHCQQYDTGATFGQGTKVEMKR
B2: D3-68 (antibody, human IgG1, kappa, L234A L235A, V domains shown)
VH: QVQLVQSGPEVKKPGASVKVSCKASGYTFTSYGISWVRRAPGQGLEWMGWISAYNGNTNYAQKLQGRVTMTTDTSTSTAYMELRSLRSDDTAVYYCARDLQSPTYYYGSGVIDYWGQGTLVTVSS
VL: DIQLTQSPSTLSASVGDRVTISCRASRAVSPWLAWYQHRPGQAPKLLIYAASSLQSGVPSRFSGSGSGTDFTLTISSLQPEDFATYYCQQYRSYPFTFGPGTTVDIRR
B3: D2-60 (antibody, human IgG1, kappa, L234A L235A, V domains shown)
VH: QVQLVQSGAEVKKPGASVKVSCKASGYTFTSYGISWVRQAPGQGLEWMGWISAYNGNTNYAQKLQGRVTMTTDTSTSTAYMELRSLRSDDTAVYYCAREYSSWYSGGMDVWGQGTTVTVSS
VL: DIQMTQSPSSLSASVGDRVTITCRASQGISNYLAWYQQKPGKVPKLLIYAASTLQSGVPSRFSGSGSGTDFTLTISSLQPEDVATYYCQKYDSAPFTFGQGTRLEIKR

The assay addresses IL-2 (C013, Novoprotein) (UniProt P60568). The experiment in a line: SPR (Biacore T200). (In general: Surface plasmon resonance follows binding to a sensor surface in real time, without labels.)
On to B1, for which the binding result is on record as “binds”. The value for B2 was “binds”; that for B3 was “binds”.
